Data taken from PubChem BioAssay AID977624, deposited by Broad Institute (2014).

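Wild-type E. coli carrying GFP, grown in the same well as an h34 humanized-ribosome RFP strain; GFP fluorescence for growth, read after 24 h.
The value is the change in activity at the highest dose tested; more negative means stronger inhibition.
Active requires GFP to fall at least twice as much as RFP with growth loss below a set limit; inconclusive means no clear call; everything else is inactive.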

These entries are mostly ones the record files as inconclusive; other results of the assay are not listed here.

- CCCNC(=O)c1cc(C2CCCN(S(=O)(=O)c3cccc4cccnc34)C2)on1 (stereo not drawn) [at 50 µM (top of the series)] : activity change 19.37 (inconclusive)
- COc1ccc2c(c1)c1ncn(Cc3ccccn3)c(=O)c1n2C [at 50 µM (top of the series)] : activity change 13.02 (inactive)
- C(=C/c1nccc2c1[nH]c1ccccc12)/c1ccc2c(c1)OCO2 [at 50 µM (top of the series)] : activity change 48.58 (inconclusive)
- C[C@@H]1CN([C@H](C)CO)C(=O)c2c(c3ccccc3n2C)-c2ccccc2CO[C@@H]1CN(C)C(=O)CCN(C)C [at 50 µM (top of the series)] : activity change 31.51 (inconclusive)
- C[C@]12C(=O)N(c3ccc(F)cc3)C(=O)N1[C@@H]1c3ccccc3OC[C@@H]1[C@H]2c1ccccc1 [at 50 µM (top of the series)] : activity change 24.38 (inconclusive)
- CN1c2ccccc2-c2nc3ccccc3n2C1c1ccncc1 (stereo not drawn) [at 50 µM (top of the series)] : activity change 20.99 (inconclusive)
- O=[N+]([O-])c1ccc(-[n+]2nc(-c3ccccc3)nn2-c2ccccc2)cc1 [at 50 µM (top of the series)] : activity change -50.35 (inconclusive)
- O=[N+]([O-])c1ccc2c(c1)S(=O)c1ccccc1-2 (stereo not drawn) [at 50 µM (top of the series)] : activity change 8.234 (inconclusive)
- COc1cccc(S(=O)(=O)N2CCCCN3[C@H](C2)[C@@H](c2ccc(C#CC(C)C)cc2)[C@@H]3CO)c1 [at 50 µM (top of the series)] : activity change 19.87 (inconclusive)
- COc1ccc(OC)c(NC(=O)c2c3c(nc4ccccc24)CCC3)c1 [at 50 µM (top of the series)] : activity change 24.07 (inconclusive)
- Cc1nn(-c2ccc(N3CCCCC3)nn2)c(C)c1CCC(=O)Nc1ccc(F)cc1 [at 50 µM (top of the series)] : activity change 10.29 (inconclusive)
- CCN(CC(=O)Nc1ccccc1OC)CC(=O)Nc1c(Cl)ccc(C)c1Cl [at 50 µM (top of the series)] : activity change -6.624 (inconclusive)
- O=S1(=O)N[C@@H](Cc2ccccc2)COc2cc(N3CCC[C@H]3CO)ccc21 [at 50 µM (top of the series)] : activity change 4.383 (inactive)
- O=S(=O)(Cc1ccc(Cl)cc1)N1CCN(Cc2ccc3c(c2)OCO3)CC1 [at 50 µM (top of the series)] : activity change 22.02 (inconclusive)
- O=C(NCc1ccccc1Cl)c1ccc2c(c1)SC1=NS(=O)(=O)CCN12 [at 50 µM (top of the series)] : activity change 11.42 (inconclusive)
- CSc1cccc(NC(=O)CCc2ccccc2)c1 [at 50 µM (top of the series)] : activity change 7.919 (inconclusive)
- CCN(Cc1ccccc1)C(=O)COC(=O)c1cc(Cl)nc(Cl)c1 [at 50 µM (top of the series)] : activity change 8.453 (inconclusive)
- Cc1cc(C)cc(NS(=O)(=O)c2c(C(=O)N3CCCCCC3)c(C)n(C)c2C)c1 [at 50 µM (top of the series)] : activity change 7.352 (inconclusive)
- CCC(C)C(=O)Nc1nc2ccc(OC)cc2s1 (stereo not drawn) [at 50 µM (top of the series)] : activity change -10.57 (inconclusive)
- COCCNc1cc(-c2ccccc2)nc2cc(-c3cccc(F)c3)nn12 [at 50 µM (top of the series)] : activity change 64.73 (inconclusive)
- Cc1ccc(NC(=O)c2ccc([N+](=O)[O-])s2)cc1S(=O)(=O)N1CCOCC1 [at 50 µM (top of the series)] : activity change -1.459 (inactive)
- CN(Cc1ccc([N+](=O)[O-])cc1)c1ccccc1 [at 50 µM (top of the series)] : activity change 10.44 (inconclusive)
- CO[C@@H]1CN(C)C(=O)c2ccc(NC(=O)c3nc4ccccc4s3)cc2OC[C@@H](C)N(Cc2ccncc2)C[C@@H]1C [at 50 µM (top of the series)] : activity change 6.078 (inconclusive)
- C#CCOc1nc(Nc2cccc([N+](=O)[O-])c2)nc(OCC#C)n1 [at 50 µM (top of the series)] : activity change 17.23 (inconclusive)

For reference, 3 entries once more:

{"smiles": "O=S(=O)(Cc1ccc(Cl)cc1)N1CCN(Cc2ccc3c(c2)OCO3)CC1", "setting": "at 50 µM (top of the series)", "activity change": "22.02", "outcome": "inconclusive"}
{"smiles": "CSc1cccc(NC(=O)CCc2ccccc2)c1", "setting": "at 50 µM (top of the series)", "activity change": "7.919", "outcome": "inconclusive"}
{"smiles": "Cc1nn(-c2ccc(N3CCCCC3)nn2)c(C)c1CCC(=O)Nc1ccc(F)cc1", "setting": "at 50 µM (top of the series)", "activity change": "10.29", "outcome": "inconclusive"}